Results on one molecule are retold here after publication PMC3531502 (PLoS Biology, 2012).

Results are given in words; binding and its absence hold for the method and conditions named.

The target of the assay is T1, HET-S(1-227), HeLo domain of HET-S (Podospora anserina), B2ACC7.
T1 chain: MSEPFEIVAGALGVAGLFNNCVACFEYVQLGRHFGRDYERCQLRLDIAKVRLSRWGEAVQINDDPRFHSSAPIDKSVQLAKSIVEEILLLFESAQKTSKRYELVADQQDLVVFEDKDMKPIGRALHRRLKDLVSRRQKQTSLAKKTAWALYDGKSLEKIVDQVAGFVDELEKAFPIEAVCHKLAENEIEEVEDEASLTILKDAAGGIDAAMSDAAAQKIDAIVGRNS
Description: SEC-MALS; […], PBS, 10% glycerol, room temperature, […]; both purified. Particulars: remark: other sources report otherwise.

B1: HET-S(1-227), HeLo domain of HET-S, B2ACC7 1-227 (domain or fragment)
chain: T1 chain
For B1, the binding entry is “no binding (tested: 20 µM)”.
